{"source": "PubChem BioAssay AID248", "about": "(DTP/NCI, 2004)", "system": "L1210 leukemia ip in BDF1 mice, survival T/C", "assay": "NCI In Vivo Anticancer Drug Screen. Data for tumor model L1210 Leukemia (intraperitoneal) in B6D2F1 (BDF1) mice", "conditions": "T/C endpoint: mean survival time, higher T/C = longer survival", "key": {"[1]": {"conditions": "dose: 100.0 mg/kg/injection, schedule: Q01DX009 (ip), vehicle: saline with Tween-80"}, "[2]": {"conditions": "dose: 400.0 mg/kg/injection, schedule: Q01DX009 (ip), vehicle: saline with Tween-80"}, "[3]": {"conditions": "dose: 100.0 mg/kg/injection, schedule: Q01DX009 (ip), vehicle: saline"}, "[4]": {"conditions": "dose: 200.0 mg/kg/injection, schedule: Q01DX009 (ip), vehicle: saline"}, "[5]": {"conditions": "dose: 400.0 mg/kg/injection, schedule: Q01DX001 (ip), vehicle: saline"}, "[6]": {"conditions": "dose: 600.0 mg/kg/injection, schedule: Q01DX001 (ip), vehicle: saline"}}, "note": "The list does not hold the whole screen: it gathers tests that were run many times, whatever their T/C, doses with no T/C, and many T/C values between a quarter and a half above the control. Further doses and runs are listed elsewhere. T/C is the treated group as % of the vehicle group. Some entries give survivors of the animals treated and no T/C: the source files T/C as zero there, which appears to mark a toxic dose or a test without result, not a measured value. Some doses without a T/C left all or most animals alive at the check, yet need not have been tolerated: survival well below the control is almost never listed, so the zero probably covers shortened survival too. Survivors were counted at the toxicity check, usually on the fifth day, unless a day is given; later deaths do not show. Schedules are NCI's codes, read here as Q, the interval in days (D) or hours (H), X, the number of doses. Some schedule codes hold Z or #, which are not explained here. Some entries were tested several times; their values stand side by side, smallest first. Where survival is the endpoint, this PubChem deposit counts one and a half times the control or more as active, and values a quarter to a half above the control carry no call in these data; other NCI protocols may use other cut-offs. Some T/C values are followed by the survivors on the day toxicity was checked, most often the fifth; where none is given, no animal had died by that day."}
{"compound": "NC(CC(=O)CCl)C(=O)O", "note": "(configuration not stated)", "values": [{"measurement": "T/C", "setting": "dose: 14.7 mg/kg/injection, schedule: Q04DX003 (ip), vehicle: saline", "value": "136 % of control"}, {"measurement": "T/C", "setting": "dose: 18.8 mg/kg/injection, schedule: Q01DX009 (ip), vehicle: carboxymethylcellulose (CMC)", "value": "125 % of control"}, {"measurement": "T/C", "setting": "dose: 33.0 mg/kg/injection, schedule: Q04DX003 (ip), vehicle: saline", "value": "136 % of control"}, {"measurement": "T/C", "setting": "dose: 37.5 mg/kg/injection, schedule: Q01DX009 (ip), vehicle: carboxymethylcellulose (CMC)", "value": "132 % of control"}, {"measurement": "T/C", "setting": "dose: 37.5 mg/kg/injection, schedule: Q01DX009 (ip), vehicle: saline", "value": "138 % of control"}, {"measurement": "survivor count", "setting": "dose: 50.0 mg/kg/injection, schedule: Q04DX003 (ip), vehicle: saline", "value": "6 of 6"}, {"measurement": "survivor count", "setting": "dose: 75.0 mg/kg/injection, schedule: Q01DX009 (ip), vehicle: saline", "value": "0 of 6"}, {"measurement": "survivor count", "setting": "dose: 300.0 mg/kg/injection, schedule: Q01DX001 (ip), vehicle: carboxymethylcellulose (CMC)", "value": "0 of 6"}]}
{"compound": "CC(C)(C)[O][Pb]([c]1ccccc1)([c]1ccccc1)[c]1ccccc1", "values": [{"measurement": "survivor count", "setting": "dose: 3.12 mg/kg/injection, schedule: Q01DX009 (ip), vehicle: saline with Tween-80", "value": "6 of 6"}, {"measurement": "survivor count", "setting": "dose: 6.25 mg/kg/injection, schedule: Q01DX009 (ip), vehicle: saline with Tween-80", "value": "1 of 6"}, {"measurement": "survivor count", "setting": "[1]", "value": "0 of 6"}, {"measurement": "survivor count", "setting": "dose: 200.0 mg/kg/injection, schedule: Q01DX009 (ip), vehicle: saline with Tween-80", "value": "0 of 6"}, {"measurement": "survivor count", "setting": "[2]", "value": "0 of 6"}]}
{"compound": "C[CH2][Sn](/[CH]=C/C=C/OC)([CH2]C)[CH2]C", "values": [{"measurement": "survivor count", "setting": "dose: 25.0 mg/kg/injection, schedule: Q01DX009 (ip), vehicle: saline", "value": "0 of 3"}, {"measurement": "survivor count", "setting": "dose: 50.0 mg/kg/injection, schedule: Q01DX009 (ip), vehicle: saline", "value": "1 of 3"}, {"measurement": "survivor count", "setting": "[3]", "value": "0 of 3 and 1 of 3"}, {"measurement": "survivor count", "setting": "[4]", "value": "0 of 3"}]}
{"compound": "CNc1ccc(C(=O)C2CC2)cc1", "values": [{"measurement": "survivor count", "setting": "[2]", "value": "1 of 6"}]}
{"compound": "Fc1cccc(CSc2ncnc3nc[nH]c23)c1", "values": [{"measurement": "T/C", "setting": "[3]", "value": "126 % of control"}, {"measurement": "T/C", "setting": "dose: 175.0 mg/kg/injection, schedule: Q01DX001 (ip), vehicle: saline", "value": "144 % of control"}, {"measurement": "T/C", "setting": "[4]", "value": "139 % of control [5 of 6 alive]"}, {"measurement": "T/C", "setting": "dose: 265.0 mg/kg/injection, schedule: Q01DX001 (ip), vehicle: saline", "value": "127 % of control"}, {"measurement": "T/C", "setting": "[5]", "value": "148 % of control [5 of 6 alive]"}, {"measurement": "survivor count", "setting": "[5]", "value": "0 of 6"}, {"measurement": "survivor count", "setting": "dose: 400.0 mg/kg/injection, schedule: Q01DX009 (ip), vehicle: saline", "value": "3 of 6"}, {"measurement": "T/C", "setting": "[6]", "value": "131 % of control [5 of 6 alive]"}, {"measurement": "survivor count", "setting": "[6]", "value": "0 of 6 and 1 of 6"}, {"measurement": "survivor count", "setting": "dose: 800.0 mg/kg/injection, schedule: Q01DX009 (ip), vehicle: saline", "value": "0 of 6"}]}
{"compound": "O=[N+]([O-])c1ccc(C[Se]c2ncnc3c2ncn3C2OC(CO)C(O)C2O)cc1", "note": "(configuration not stated)", "values": [{"measurement": "survivor count", "setting": "dose: 100.0 mg/kg/injection, schedule: Q01DX005 (ip), vehicle: saline", "value": "1 of 6"}, {"measurement": "survivor count", "setting": "dose: 200.0 mg/kg/injection, schedule: Q01DX005 (ip), vehicle: saline", "value": "0 of 6"}]}
{"compound": "CCCCCCCCP(C)(=O)CCCCCCCC", "values": [{"measurement": "survivor count", "setting": "dose: 400.0 mg/kg/injection, schedule: Q04DX002 (ip), vehicle: Klucel (hydroxypropylcellulose) (HPC)", "value": "1 of 3"}]}
{"compound": "CC(=O)c1c(O)c(Br)c(C)oc1=O", "values": [{"measurement": "survivor count", "setting": "dose: 100.0 mg/kg/injection, schedule: Q01DX009 (ip), vehicle: Klucel (hydroxypropylcellulose) (HPC)", "value": "3 of 3"}, {"measurement": "survivor count", "setting": "dose: 200.0 mg/kg/injection, schedule: Q01DX009 (ip), vehicle: Klucel (hydroxypropylcellulose) (HPC)", "value": "2 of 3"}]}
{"compound": "CSc1ncc2n1C=CN(C(=O)c1ccc([N+](=O)[O-])cc1)C2O", "note": "(configuration not stated)", "values": [{"measurement": "survivor count", "setting": "[3]", "value": "6 of 6"}]}
{"compound": "O=c1ccn(-c2ccccc2)c(=S)[nH]1", "values": [{"measurement": "survivor count", "setting": "[2]", "value": "2 of 6"}]}
{"compound": "C=CCc1c[nH]c(=O)[nH]c1=O.[Hg]", "values": [{"measurement": "survivor count", "setting": "dose: 50.0 mg/kg/injection, schedule: Q01DX009 (ip), vehicle: Klucel (hydroxypropylcellulose) (HPC)", "value": "0 of 6"}, {"measurement": "survivor count", "setting": "dose: 100.0 mg/kg/injection, schedule: Q04DX003 (ip), vehicle: Klucel (hydroxypropylcellulose) (HPC)", "value": "0 of 6"}, {"measurement": "survivor count", "setting": "dose: 200.0 mg/kg/injection, schedule: Q04DX003 (ip), vehicle: Klucel (hydroxypropylcellulose) (HPC)", "value": "5 of 6"}, {"measurement": "survivor count", "setting": "dose: 400.0 mg/kg/injection, schedule: Q04DX003 (ip), vehicle: Klucel (hydroxypropylcellulose) (HPC)", "value": "0 of 6"}]}
{"compound": "CN(C)c1ccc(/C=N\\NC(=S)Nc2ccc3cn[nH]c3c2)cc1", "values": [{"measurement": "survivor count", "setting": "dose: 400.0 mg/kg/injection, schedule: Q01DX001 (ip), vehicle: carboxymethylcellulose (CMC)", "value": "0 of 4"}]}
{"compound": "O=C(Nc1ccc(NC2=NCCN2)cc1)c1cccc(C(=O)Nc2ccc(NC3=NCCN3)cc2)c1", "values": [{"measurement": "survivor count", "setting": "dose: 15.0 mg/kg/injection, schedule: Q01DX Z (ip), vehicle: methylcellulose (MC)", "value": "5 of 6"}, {"measurement": "survivor count", "setting": "dose: 30.0 mg/kg/injection, schedule: Q01DX Z (ip), vehicle: methylcellulose (MC)", "value": "1 of 6"}, {"measurement": "survivor count", "setting": "dose: 60.0 mg/kg/injection, schedule: Q01DX Z (ip), vehicle: methylcellulose (MC)", "value": "0 of 6"}, {"measurement": "survivor count", "setting": "dose: 120.0 mg/kg/injection, schedule: Q01DX Z (ip), vehicle: methylcellulose (MC)", "value": "0 of 6"}]}
{"compound": "Cn1nc(N)c2ncc(C(Cl)(Cl)Cl)nc21", "values": [{"measurement": "survivor count", "setting": "[1]", "value": "1 of 6"}]}
{"compound": "CCCCCC(=O)Oc1c(C(C)(C)C)cc([N+](=O)[O-])c(C)c1[N+](=O)[O-]", "values": [{"measurement": "survivor count", "setting": "dose: 400.0 mg/kg/injection, schedule: Q04DX002 (ip), vehicle: saline", "value": "1 of 3"}]}
{"compound": "CC1CC(C)(C)NC(C2CCC=CO2)N1", "note": "(configuration not stated)", "values": [{"measurement": "survivor count", "setting": "dose: 66.0 mg/kg/injection, schedule: Q01DX Z (ip), vehicle: saline", "value": "6 of 6"}]}
